Measured values as given in patent publication US20060233870A1, “Compositions and methods for drug delivery” (Noven Pharmaceuticals, Inc., priority 1999, published 2006).

Settings: increasing amount of carboxy functional acrylic (DT 87-2852 or DT 87-2296) versus non-functional DT 87-2097; FIG. 4

In the case of CN1[C@@H]2C[C@@H](OC(=O)[C@H](CO)c3ccccc3)C[C@H]1[C@@H]1O[C@@H]12 [scopolamine], the scopolamine flux is reported as “decreases the flux of the scopolamine”.
